Measured values: ChEMBL document CHEMBL1671662, “In vitro activities of telavancin and six comparator agents against anaerobic bacterial isolates” (2009)

Key:
Type in all cases: functional
[1] = system: Finegoldia magna; assay: Antibacterial activity against Finegoldia magna by CLSI M11-A6 agar dilution method
[2] = system: Clostridium leptum; assay: Antibacterial activity against Clostridium leptum by CLSI M11-A6 agar dilution method
[3] = system: Streptococcus intermedius; assay: Antibacterial activity against Streptococcus intermedius by CLSI M11-A6 agar dilution method
[4] = system: Clostridium sporosphaeroides; assay: Antibacterial activity against Clostridium sporosphaeroides by CLSI M11-A6 agar dilution method; conditions: Faecalispora sporosphaeroides
[5] = system: Clostridium celerecrescens; assay: Antibacterial activity against Clostridium celerecrescens by CLSI M11-A6 agar dilution method; conditions: Lacrimispora celerecrescens
[6] = system: Ruminococcus sp.; assay: Antibacterial activity against Ruminococcus sp. by CLSI M11-A6 agar dilution method
[7] = system: Clostridium tertium; assay: Antibacterial activity against Clostridium tertium by CLSI M11-A6 agar dilution method
[8] = system: Peptostreptococcus anaerobius; assay: Antibacterial activity against Peptostreptococcus anaerobius by CLSI M11-A6 agar dilution method
[9] = system: Clostridium glycolicum; assay: Antibacterial activity against Clostridium glycolicum by CLSI M11-A6 agar dilution method; conditions: Terrisporobacter glycolicus
[10] = system: Peptoniphilus asaccharolyticus; assay: Antibacterial activity against Peptoniphilus asaccharolyticus by CLSI M11-A6 agar dilution method
[11] = system: Clostridium sp.; assay: Antibacterial activity against Clostridium sp. by CLSI M11-A6 agar dilution method
[12] = system: Clostridium scindens; assay: Antibacterial activity against Clostridium scindens by CLSI M11-A6 agar dilution method
[13] = system: Flavonifractor plautii; assay: Antibacterial activity against Clostridium orbiscindens by CLSI M11-A6 agar dilution method
[14] = system: Paraclostridium bifermentans; assay: Antibacterial activity against Clostridium bifermentans by CLSI M11-A6 agar dilution method
[15] = system: Clostridium spiroforme; assay: Antibacterial activity against Clostridium spiroforme by CLSI M11-A6 agar dilution method; conditions: Thomasclavelia spiroformis
[16] = system: Clostridium; assay: Antibacterial activity against Clostridium hypermegas by CLSI M11-A6 agar dilution method
[17] = system: Clostridium bartlettii; assay: Antibacterial activity against Clostridium bartlettii by CLSI M11-A6 agar dilution method; conditions: Intestinibacter bartlettii
[18] = system: Streptococcus anginosus; assay: Antibacterial activity against Streptococcus anginosus by CLSI M11-A6 agar dilution method
[19] = system: Anaerococcus prevotii; assay: Antibacterial activity against Anaerococcus prevotii by CLSI M11-A6 agar dilution method
[20] = system: Paeniclostridium sordellii; assay: Antibacterial activity against Clostridium sordellii by CLSI M11-A6 agar dilution method; conditions: Paraclostridium sordellii
[21] = system: Clostridium beijerinckii; assay: Antibacterial activity against Clostridium beijerinckii by CLSI M11-A6 agar dilution method
[22] = system: Enterocloster clostridioformis; assay: Antibacterial activity against Clostridium clostridioforme by CLSI M11-A6 agar dilution method
[23] = system: Clostridium paraputrificum; assay: Antibacterial activity against Clostridium paraputrificum by CLSI M11-A6 agar dilution method
[24] = system: Anaerococcus tetradius; assay: Antibacterial activity against Anaerococcus tetradius by CLSI M11-A6 agar dilution method
[25] = system: Parvimonas micra; assay: Antibacterial activity against Peptostreptococcus micros by CLSI M11-A6 agar dilution method
[26] = system: Streptococcus constellatus; assay: Antibacterial activity against Streptococcus constellatus by CLSI M11-A6 agar dilution method
[27] = system: Clostridium sporogenes; assay: Antibacterial activity against Clostridium sporogenes by CLSI M11-A6 agar dilution method
[28] = system: Clostridium disporicum; assay: Antibacterial activity against Clostridium disporicum by CLSI M11-A6 agar dilution method
[29] = system: Clostridium butyricum; assay: Antibacterial activity against Clostridium butyricum by CLSI M11-A6 agar dilution method

CCC[C@@H]1C[C@@H](C(=O)N[C@@H]([C@H]2O[C@H](SC)[C@H](O)[C@@H](O)[C@H]2O)[C@H](C)Cl)N(C)C1 [CLINDAMYCIN]
0.25 µg/mL: MIC50 [1] | MIC50 [2] | MIC50 [3] | MIC50 [4] | MIC50 [5] | MIC50 [6] | MIC50 [7] | MIC50 [8] | MIC50 [9] | MIC50 [10] | MIC50 [11] | MIC50 [12] | MIC50 [13] | MIC50 [14] | MIC50 [15] | MIC50 [16] | MIC50 [17] | MIC50 [18] | MIC50 [19] | MIC50 [20] | MIC50 [21] | MIC50 [22] | MIC50 [23] | MIC50 [24] | MIC50 [25] | MIC50 [26] | MIC50 [27] | MIC50 [28] | MIC50 [29]
4 µg/mL: MIC90 [16]
